Values of other authors as cited in US20120148662A1, “Formulation” (priority 2010, published 2012).
Read-outs that look alike come from different tables or passages of the source. At least one structure is not confirmed: it was looked up by name or label, or the drawing left a doubt.

Experiments:
plasma HDL cholesterol [1] = settings: humans
plasma HDL cholesterol [2] = settings: rabbits
LDL cholesterol [3] = settings: humans
LDL cholesterol [4] = settings: rabbits
atherosclerosis = settings: rabbits

CCC(CC)CC1(C(=O)Nc2ccccc2SC(=O)C(C)C)CCCCC1 [dalcetrapib, S-[2-([[1-(2-ethylbutyl)-cyclohexyl]-carbonyl]amino)phenyl]2-methylpropanethioate]
effect on plasma HDL cholesterol (plasma HDL cholesterol [1]): increase plasma HDL cholesterol
effect on plasma HDL cholesterol (plasma HDL cholesterol [2]): increase plasma HDL cholesterol
effect on LDL cholesterol (LDL cholesterol [3]): decrease LDL cholesterol
effect on LDL cholesterol (LDL cholesterol [4]): decrease LDL cholesterol
effect on progression of atherosclerosis (atherosclerosis): inhibits the progression of atherosclerosis
